# About 7,500 (2.1%) of roughly 360,000 compounds were called active. The inconclusive results got no clear call from the source; some entries with a clear call stand among them for comparison. The call rests on the fitted dose curve; in most records, active means well fitted inhibition curve with a large enough effect; inconclusive means small, poorly fitted or top-dose-only effect, or effect the other way; inactive means flat fitted curve, though single readings scatter. A potency beside an inconclusive call is a rough fit, not a confirmed value.
# Experiment: Nrf2 qHTS screen for inhibitors; further: nearly all actives have a fitted effect of over 60% in size
# Settings: A549 ARE-Fluc reporter, luciferase luminescence, 18-24 h; activity change, negative = inhibition: at 46 µM (top of the series)
# Summary of the method: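 A549 ARE_Fluc cells (5000/well, 5% FBS OPTI-MEM) pre-incubated 2 h, then treated with compounds 18-24 h at 37C/5% CO2 in concentration-response. CellTiter-Fluor viability read first; BugLite luciferase luminescence after 15 min at room temperature gives Nrf2 activity.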
# On the % scale 0 is the no-effect control and ±100 the full control effect; potency means the concentration at half of the fitted maximal effect.
Structure (SMILES),"activity change, negative = inhibition",Potency
O=C(Nc1cccc(S(=O)(=O)N2CCOCC2)c1)c1ccc(Cl)nc1,inactive: 2.02%,–
CCOCCCNC(=O)C1CCN(c2nn3cc(-c4ccc(F)cc4)nc3s2)CC1,–,"inconclusive: 9.2 µM [falling, single point]"
COc1ccc(CC(=O)Nc2c(C(=O)N3CCN(c4ncccn4)CC3)oc3ccccc23)cc1,inactive: -12.1%,–
Cc1cccc(C)c1NC(=O)CNC(=O)c1cccc(S(=O)(=O)NCc2cccs2)c1,inactive: -16.4%,–
Cc1ccc(-c2nn(-c3ccccc3)cc2/C=C/C(=O)Nc2cccc(S(N)(=O)=O)c2)cc1,–,"inconclusive: 18.4 µM [falling, single point]"
COc1cc(NC(=O)NCc2ccco2)ccc1-c1ccc(NC(=O)NCc2ccco2)cc1OC,–,"inconclusive: 23.1 µM [falling, single point]"
COc1ccc2cc3cc(C(=O)NCc4ccc(C)cc4)oc3nc2c1,–,"inconclusive: 5.17 µM [falling, full curve, poor fit]"
c1ccc(CN2CCC(N3CCN(Cc4ccc5c(c4)OCO5)CC3)CC2)cc1,–,"inconclusive: 20.6 µM [falling, partial curve, poor fit]"
Cc1ccc(Cn2nnnc2CN2CCC(O)(c3cccnc3)CC2)cc1,–,"inconclusive: 0.058 µM [falling, full curve, poor fit]"
Cc1ccc(S(=O)(=O)Cc2ccc(C(=O)N3CCCC3)o2)cc1,–,"inconclusive: 0.0052 µM [falling, full curve, poor fit]"
Cc1cccc(NS(=O)(=O)c2cc3c4c(c2)CCC(=O)N4CCC3)c1,–,"inconclusive: 25.9 µM [falling, partial curve, poor fit]"
Cc1ccc(NC(=O)c2ccc(-c3nn(C)c(=O)c4ccccc34)cc2)cc1,–,"inconclusive: 29.1 µM [falling, single point]"
COc1ccc2oc(=O)c(C(=O)NCc3ccc4c(c3)OCO4)cc2c1,–,"inconclusive: 10.3 µM [falling, partial curve, poor fit]"
Cc1ncc(CN2CCC(C(=O)Nc3cccc(-c4cscn4)c3)CC2)cn1,–,"inconclusive: 6.51 µM [falling, partial curve]"
O=C(CN(c1ccc(Br)cc1)S(=O)(=O)c1ccc(Cl)c([N+](=O)[O-])c1)NCCc1ccccc1,inactive: -1.79%,–
COC(=O)c1ccc(NC(=S)NC(=O)c2c(Cl)cnn2C)cc1,–,"inconclusive: 23.1 µM [activator, partial curve, poor fit]"
Cc1cc(S(=O)(=O)N2CCC3(CC2)OCCN3S(=O)(=O)c2cccs2)ccc1F,–,"inconclusive: 23.1 µM [falling, single point]"

# Single entries from above:
# Potency with CCOCCCNC(=O)C1CCN(c2nn3cc(-c4ccc(F)cc4)nc3s2)CC1 reads inconclusive: 9.2 µM [falling, single point]
# Potency with Cc1cc(S(=O)(=O)N2CCC3(CC2)OCCN3S(=O)(=O)c2cccs2)ccc1F reads inconclusive: 23.1 µM [falling, single point]

# From PubChem BioAssay AID504444 (National Center for Advancing Translational Sciences (NCATS), 2011)
